In publication PMC6821171:
Results are given in words; binding and its absence hold for the method and conditions named. Binding seen in cells or lysates may run through a third protein. These calls come from enrichment with a bait or labelling near it, and not all partners need be listed. No binding means not detected with the bait.

The chains behind the UniProt entries cited, without tags or fusion partners.
UniProt P21127: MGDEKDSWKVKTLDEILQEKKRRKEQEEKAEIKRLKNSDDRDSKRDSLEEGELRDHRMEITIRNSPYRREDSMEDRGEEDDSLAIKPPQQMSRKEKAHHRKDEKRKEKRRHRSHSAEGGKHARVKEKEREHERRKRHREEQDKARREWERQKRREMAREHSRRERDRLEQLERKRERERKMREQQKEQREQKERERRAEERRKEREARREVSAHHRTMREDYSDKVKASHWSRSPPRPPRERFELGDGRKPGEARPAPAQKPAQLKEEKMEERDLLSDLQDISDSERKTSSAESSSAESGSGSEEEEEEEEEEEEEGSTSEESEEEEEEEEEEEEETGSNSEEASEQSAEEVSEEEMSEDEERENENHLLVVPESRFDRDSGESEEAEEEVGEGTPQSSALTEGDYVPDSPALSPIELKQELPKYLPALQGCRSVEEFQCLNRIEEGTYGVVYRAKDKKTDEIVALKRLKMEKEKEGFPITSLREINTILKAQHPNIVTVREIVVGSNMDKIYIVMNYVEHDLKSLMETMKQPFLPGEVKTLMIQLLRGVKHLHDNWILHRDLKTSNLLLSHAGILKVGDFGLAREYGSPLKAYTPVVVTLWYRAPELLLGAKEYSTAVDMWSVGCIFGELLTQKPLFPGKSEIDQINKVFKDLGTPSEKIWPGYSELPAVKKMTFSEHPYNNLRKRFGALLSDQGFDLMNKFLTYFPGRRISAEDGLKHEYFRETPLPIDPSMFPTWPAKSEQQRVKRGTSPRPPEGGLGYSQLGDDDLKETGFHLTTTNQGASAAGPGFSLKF
UniProt P11387: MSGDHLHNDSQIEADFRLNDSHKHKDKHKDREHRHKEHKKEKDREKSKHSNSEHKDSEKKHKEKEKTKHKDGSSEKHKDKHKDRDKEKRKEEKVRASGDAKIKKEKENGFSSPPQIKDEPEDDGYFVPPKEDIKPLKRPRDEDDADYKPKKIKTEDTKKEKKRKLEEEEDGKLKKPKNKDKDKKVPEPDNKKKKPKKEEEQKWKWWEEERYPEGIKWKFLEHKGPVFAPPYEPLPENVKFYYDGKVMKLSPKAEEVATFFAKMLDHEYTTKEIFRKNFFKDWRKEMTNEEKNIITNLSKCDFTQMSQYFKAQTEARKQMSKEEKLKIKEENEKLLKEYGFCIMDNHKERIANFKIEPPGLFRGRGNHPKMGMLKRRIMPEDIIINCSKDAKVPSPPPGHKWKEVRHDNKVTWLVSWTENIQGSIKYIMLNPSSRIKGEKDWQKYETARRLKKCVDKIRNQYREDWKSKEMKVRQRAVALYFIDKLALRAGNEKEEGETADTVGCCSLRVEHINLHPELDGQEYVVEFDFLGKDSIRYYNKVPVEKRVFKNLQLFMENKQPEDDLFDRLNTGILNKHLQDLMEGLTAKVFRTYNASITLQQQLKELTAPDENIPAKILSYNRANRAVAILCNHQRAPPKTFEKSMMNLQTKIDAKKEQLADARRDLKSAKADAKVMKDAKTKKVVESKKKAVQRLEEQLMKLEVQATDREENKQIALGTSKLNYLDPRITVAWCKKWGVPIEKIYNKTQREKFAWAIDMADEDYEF
UniProt Q9NWH9: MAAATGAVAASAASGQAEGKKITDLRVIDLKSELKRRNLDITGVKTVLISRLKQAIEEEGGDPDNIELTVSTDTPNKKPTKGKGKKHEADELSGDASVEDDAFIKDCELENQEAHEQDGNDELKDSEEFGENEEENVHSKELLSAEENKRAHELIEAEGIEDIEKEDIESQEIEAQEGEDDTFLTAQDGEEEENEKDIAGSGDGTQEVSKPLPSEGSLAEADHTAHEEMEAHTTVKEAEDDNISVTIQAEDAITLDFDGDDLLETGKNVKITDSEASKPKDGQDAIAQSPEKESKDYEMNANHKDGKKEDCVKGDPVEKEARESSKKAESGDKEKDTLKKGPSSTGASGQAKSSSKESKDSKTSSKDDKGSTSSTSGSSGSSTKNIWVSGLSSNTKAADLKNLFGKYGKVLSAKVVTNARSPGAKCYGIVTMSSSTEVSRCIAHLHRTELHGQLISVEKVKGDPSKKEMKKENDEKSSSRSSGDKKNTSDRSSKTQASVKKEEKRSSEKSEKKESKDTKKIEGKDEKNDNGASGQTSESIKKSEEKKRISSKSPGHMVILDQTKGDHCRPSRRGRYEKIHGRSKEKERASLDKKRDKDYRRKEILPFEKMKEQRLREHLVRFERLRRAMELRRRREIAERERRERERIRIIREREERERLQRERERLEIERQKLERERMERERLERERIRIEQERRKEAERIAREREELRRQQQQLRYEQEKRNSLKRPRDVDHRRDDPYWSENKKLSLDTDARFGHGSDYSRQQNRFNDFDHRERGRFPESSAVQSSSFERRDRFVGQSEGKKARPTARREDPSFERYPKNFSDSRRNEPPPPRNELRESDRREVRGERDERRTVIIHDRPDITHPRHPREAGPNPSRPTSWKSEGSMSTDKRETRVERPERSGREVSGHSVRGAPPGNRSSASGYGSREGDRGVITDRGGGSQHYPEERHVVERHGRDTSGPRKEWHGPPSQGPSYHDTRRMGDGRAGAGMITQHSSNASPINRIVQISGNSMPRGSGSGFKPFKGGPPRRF
UniProt P13010: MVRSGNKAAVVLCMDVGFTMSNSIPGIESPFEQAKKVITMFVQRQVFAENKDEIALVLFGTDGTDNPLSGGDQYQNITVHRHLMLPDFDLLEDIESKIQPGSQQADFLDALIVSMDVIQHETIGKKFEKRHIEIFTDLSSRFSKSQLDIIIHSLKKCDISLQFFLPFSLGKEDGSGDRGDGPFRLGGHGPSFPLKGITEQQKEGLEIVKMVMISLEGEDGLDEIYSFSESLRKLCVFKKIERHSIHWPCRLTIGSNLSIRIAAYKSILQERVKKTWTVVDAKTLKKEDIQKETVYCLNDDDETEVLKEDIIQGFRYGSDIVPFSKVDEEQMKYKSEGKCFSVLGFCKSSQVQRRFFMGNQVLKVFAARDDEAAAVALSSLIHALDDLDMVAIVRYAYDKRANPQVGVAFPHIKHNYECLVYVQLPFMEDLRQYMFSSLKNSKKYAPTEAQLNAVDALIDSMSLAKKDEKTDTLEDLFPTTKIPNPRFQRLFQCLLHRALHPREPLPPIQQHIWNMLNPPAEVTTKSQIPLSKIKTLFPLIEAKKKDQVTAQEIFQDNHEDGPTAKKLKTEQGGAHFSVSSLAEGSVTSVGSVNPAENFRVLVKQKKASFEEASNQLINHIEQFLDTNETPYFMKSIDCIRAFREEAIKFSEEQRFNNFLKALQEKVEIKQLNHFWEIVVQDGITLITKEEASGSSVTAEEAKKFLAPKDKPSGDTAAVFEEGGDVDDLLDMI
UniProt P49750: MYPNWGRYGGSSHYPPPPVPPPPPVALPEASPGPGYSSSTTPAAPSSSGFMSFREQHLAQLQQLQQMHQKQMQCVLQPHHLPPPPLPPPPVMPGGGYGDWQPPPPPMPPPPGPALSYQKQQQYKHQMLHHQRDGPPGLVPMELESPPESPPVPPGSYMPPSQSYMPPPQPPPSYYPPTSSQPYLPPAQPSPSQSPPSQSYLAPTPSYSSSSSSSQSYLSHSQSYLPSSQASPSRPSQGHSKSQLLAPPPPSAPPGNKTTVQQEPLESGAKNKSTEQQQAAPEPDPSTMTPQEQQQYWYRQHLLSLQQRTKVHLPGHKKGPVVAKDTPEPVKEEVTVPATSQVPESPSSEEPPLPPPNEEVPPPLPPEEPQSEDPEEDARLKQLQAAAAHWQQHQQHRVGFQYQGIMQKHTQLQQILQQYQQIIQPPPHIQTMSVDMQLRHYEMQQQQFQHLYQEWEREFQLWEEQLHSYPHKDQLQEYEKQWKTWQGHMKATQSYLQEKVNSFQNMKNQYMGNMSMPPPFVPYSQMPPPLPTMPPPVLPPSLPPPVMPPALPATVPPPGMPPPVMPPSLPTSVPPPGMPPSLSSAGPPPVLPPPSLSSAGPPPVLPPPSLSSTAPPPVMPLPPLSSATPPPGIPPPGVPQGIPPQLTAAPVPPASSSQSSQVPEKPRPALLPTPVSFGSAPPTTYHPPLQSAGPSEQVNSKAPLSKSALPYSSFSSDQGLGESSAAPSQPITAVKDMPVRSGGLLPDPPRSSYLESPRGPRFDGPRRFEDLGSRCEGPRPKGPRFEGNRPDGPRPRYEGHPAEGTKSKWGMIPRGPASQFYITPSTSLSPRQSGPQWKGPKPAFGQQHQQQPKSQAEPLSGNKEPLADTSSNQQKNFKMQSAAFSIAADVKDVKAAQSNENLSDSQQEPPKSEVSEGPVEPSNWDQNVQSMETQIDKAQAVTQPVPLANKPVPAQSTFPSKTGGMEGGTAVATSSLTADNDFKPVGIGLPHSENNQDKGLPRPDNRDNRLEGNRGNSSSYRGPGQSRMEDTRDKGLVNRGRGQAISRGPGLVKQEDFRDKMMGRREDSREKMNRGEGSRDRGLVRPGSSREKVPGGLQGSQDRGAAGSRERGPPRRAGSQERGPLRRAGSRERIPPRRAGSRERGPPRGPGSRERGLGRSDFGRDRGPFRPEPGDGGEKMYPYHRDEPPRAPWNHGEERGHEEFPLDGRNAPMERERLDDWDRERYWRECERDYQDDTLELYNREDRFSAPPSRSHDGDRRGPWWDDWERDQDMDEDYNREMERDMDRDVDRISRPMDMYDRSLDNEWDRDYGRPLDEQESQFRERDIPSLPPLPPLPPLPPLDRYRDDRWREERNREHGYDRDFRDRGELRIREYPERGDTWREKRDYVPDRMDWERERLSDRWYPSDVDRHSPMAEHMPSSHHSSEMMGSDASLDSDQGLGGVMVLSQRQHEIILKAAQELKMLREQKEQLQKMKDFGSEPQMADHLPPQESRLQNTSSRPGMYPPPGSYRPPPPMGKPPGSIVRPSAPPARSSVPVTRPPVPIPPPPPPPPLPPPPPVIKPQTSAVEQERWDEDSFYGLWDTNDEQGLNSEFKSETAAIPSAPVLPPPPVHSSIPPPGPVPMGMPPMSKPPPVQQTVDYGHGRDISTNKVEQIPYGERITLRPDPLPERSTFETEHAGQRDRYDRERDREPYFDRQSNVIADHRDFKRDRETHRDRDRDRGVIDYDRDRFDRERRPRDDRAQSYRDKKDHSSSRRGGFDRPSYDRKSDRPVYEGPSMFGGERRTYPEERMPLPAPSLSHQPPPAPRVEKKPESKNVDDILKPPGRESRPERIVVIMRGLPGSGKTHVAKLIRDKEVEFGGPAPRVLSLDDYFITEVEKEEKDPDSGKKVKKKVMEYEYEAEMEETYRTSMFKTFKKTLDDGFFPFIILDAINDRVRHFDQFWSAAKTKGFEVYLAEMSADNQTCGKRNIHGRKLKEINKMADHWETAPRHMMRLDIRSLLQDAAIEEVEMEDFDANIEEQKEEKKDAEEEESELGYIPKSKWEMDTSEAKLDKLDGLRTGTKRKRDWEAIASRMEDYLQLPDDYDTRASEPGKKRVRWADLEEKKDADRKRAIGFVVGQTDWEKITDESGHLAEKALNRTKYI
UniProt Q9NR30: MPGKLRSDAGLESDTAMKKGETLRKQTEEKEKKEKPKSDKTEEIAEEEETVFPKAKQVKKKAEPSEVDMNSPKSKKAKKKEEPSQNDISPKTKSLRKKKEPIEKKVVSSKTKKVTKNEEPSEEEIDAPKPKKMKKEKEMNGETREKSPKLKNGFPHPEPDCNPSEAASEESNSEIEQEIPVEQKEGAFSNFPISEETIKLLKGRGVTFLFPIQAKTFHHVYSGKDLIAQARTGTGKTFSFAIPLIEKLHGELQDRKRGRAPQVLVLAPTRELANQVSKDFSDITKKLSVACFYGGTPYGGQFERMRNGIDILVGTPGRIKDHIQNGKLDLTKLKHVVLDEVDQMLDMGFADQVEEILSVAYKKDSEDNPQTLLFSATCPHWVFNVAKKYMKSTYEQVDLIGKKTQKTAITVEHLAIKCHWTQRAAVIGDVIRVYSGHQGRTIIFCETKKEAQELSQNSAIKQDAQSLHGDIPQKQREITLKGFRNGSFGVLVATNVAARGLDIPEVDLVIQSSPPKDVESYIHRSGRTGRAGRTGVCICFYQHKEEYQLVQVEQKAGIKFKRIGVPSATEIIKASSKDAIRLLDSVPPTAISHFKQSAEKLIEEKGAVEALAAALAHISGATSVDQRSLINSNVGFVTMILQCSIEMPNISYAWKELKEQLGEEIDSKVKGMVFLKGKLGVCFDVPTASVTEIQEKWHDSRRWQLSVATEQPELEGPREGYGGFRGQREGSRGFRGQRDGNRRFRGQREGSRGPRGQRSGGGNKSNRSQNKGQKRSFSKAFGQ

biological target: HBF (His6-biotinylation sequence-FLAG tag)-LYAR (human) (UniProt Q9NX58); assay: affinity purification with mass spectrometry; HBF-LYAR as bait; sequential two-step pulldown (Ni-NTA pulldown, RNase A treatment, FLAG pulldown) from nuclear extract of HBF-LYAR-TO cells treated with Dox for 24 h; SDS-PAGE, in-gel digestion with trypsin and Lys-C, nano LC-MS/MS; T-REx 293 cells as control

Substance	binding
Bcl-2-associated transcription factor 1 (from UniProt Q9NYF8 1-920)	binds
Bromodomain-containing protein 2 (endogenous) (from UniProt P25440 1-801)	binds
Casein kinase II subunit alpha (from UniProt P19784 1-350)	binds
Cyclin-dependent kinase 11B (from UniProt P21127 1-795)	binds
DNA topoisomerase 1 (from UniProt P11387 1-765)	binds
Proline-, glutamic acid- and leucine-rich protein 1 (from UniProt Q8IZL8 1-1130)	binds
Protein max (from UniProt P61244 1-160)	binds
SAFB-like transcription modulator (from UniProt Q9NWH9 1-1034)	binds
Transcription factor 20 (from UniProt Q9UGU0 1-1960)	binds
X-ray repair cross-complementing protein 5 (from UniProt P13010 1-732)	binds
YLP motif-containing protein 1 (from UniProt P49750 1-2146)	binds
histone acetyltransferase p300 (from UniProt Q09472 1-2414)	no binding
nucleophosmin (from UniProt P06748 1-294)	binds

Results, then the substance that gave them:

binding	Substance
binds	Casein kinase II subunit beta (from UniProt P67870 1-215)
binds	DDX21 (from UniProt Q9NR30 1-783)
binds	DNA damage-binding protein 1 (from UniProt Q16531 1-1140)
binds	FACT complex subunit SPT16 (from UniProt Q9Y5B9 1-1047)
binds	FACT complex subunit SSRP1 (from UniProt Q08945 1-709)
binds	General transcription factor IIF subunit 1 (from UniProt P35269 1-517)
no binding	SIRT7 (from UniProt Q9NRC8 1-400)
no binding	histone acetyltransferase GCN5 (from UniProt Q92830 1-837)
